Assay results taken from patent US20130171152A1.
These are yes or no findings as the source states them, for the method shown. Some results given as binding are weak or reduced against the parent protein; the word gives no strength.

Tests used:
[1] = target: Homo sapiens MUC16 (GenBank NP-078966) (human); experiment: FACS on OVCAR3 wild type cells
[2] = target: Homo sapiens MUC16 (GenBank NP-078966) (human); experiment: FACS on OVCAR3 cells, subclone
[3] = target: Homo sapiens MUC16 (GenBank NP-078966) (human); experiment: FACS on OVCAR3 cells, hybridoma sup 1:1
[4] = target: Homo sapiens MUC16 (GenBank NP-078966) (human); experiment: saturation binding of 131I-labelled antibody on intact OVCAR-3 cells

Measured: binding

B1: 4A5.37 (antibody, IgG1, V domains shown)
VH: VKLEESGGGFVKPGGSLKISCAASGFTFRNYAMSWVRLSPEMRLEWVATISSAGGYIFYSDSVQGRFTISRDNAKNTLHLQMGSLRSGDTAMYYCARQGFGNYGDYYAMDYWGQGTTVTVSS
VL: DIELTQSPSSLAVSAGEKVTMSCKSSQSLLNSRTRKNQLAWYQQKTGQSPELLIYWASTRQSGVPDRFTGSGSGTDFTLTISSVQAEDLAVYYCQQSYNLLTFGPGTKLEIKR
binds: [1] | [2] | [3] | [4]
